Results are given in words; binding and its absence hold for the method and conditions named. In cells and extracts the contact can be indirect. These calls come from enrichment with a bait or labelling near it, and not all partners need be listed.
B1: zinc finger protein 598 (ZNF598) (protein, UniProt Q86UK7 1-904)
chain: MAAAGGAEGRRAALEAAAAAAPERGGGSCVLCCGDLEATALGRCDHPVCYRCSTKMRVLCEQRYCAVCREELRQVVFGKKLPAFATIPIHQLQHEKKYDIYFADGKVYALYRQLLQHECPRCPELPPFSLFGDLEQHMRRQHELFCCRLCLQHLQIFTYERKWYSRKDLARHRMQGDPDDTSHRGHPLCKFCDERYLDNDELLKHLRRDHYFCHFCDSDGAQDYYSDYAYLREHFREKHFLCEEGRCSTEQFTHAFRTEIDLKAHRTACHSRSRAEARQNRHIDLQFSYAPRHSRRNEGVVGGEDYEEVDRYSRQGRVARAGTRGAQQSRRGSWRYKREEEDREVAAAVRASVAAQQQEEARRSEDQEEGGRPKKEEAAARGPEDPRGPRRSPRTQGEGPGPKETSTNGPVSQEAFSVTGPAAPGCVGVPGALPPPSPKLKDEDFPSLSASTSSSCSTAATPGPVGLALPYAIPARGRSAFQEEDFPALVSSVPKPGTAPTSLVSAWNSSSSSKKVAQPPLSAQATGSGQPTRKAGKGSRGGRKGGPPFTQEEEEDGGPALQELLSTRPTGSVSSTLGLASIQPSKVGKKKKVGSEKPGTTLPQPPPATCPPGALQAPEAPASRAEGPVAVVVNGHTEGPAPARSAPKEPPGLPRPLGSFPCPTPQEDFPALGGPCPPRMPPPPGFSAVVLLKGTPPPPPPGLVPPISKPPPGFSGLLPSPHPACVPSPATTTTTKAPRLLPAPRAYLVPENFRERNLQLIQSIRDFLQSDEARFSEFKSHSGEFRQGLISAAQYYKSCRDLLGENFQKVFNELLVLLPDTAKQQELLSAHTDFCNREKPLSTKSKKNKKSAWQATTQQAGLDCRVCPTCQQVLAHGDASSHQALHAARDDDFPSLQAIARIIT

Amino acid sequences for entries named in this document (tags omitted). A change or cut given only in a name is not applied to a line headed by its entry.
UniProt O75420: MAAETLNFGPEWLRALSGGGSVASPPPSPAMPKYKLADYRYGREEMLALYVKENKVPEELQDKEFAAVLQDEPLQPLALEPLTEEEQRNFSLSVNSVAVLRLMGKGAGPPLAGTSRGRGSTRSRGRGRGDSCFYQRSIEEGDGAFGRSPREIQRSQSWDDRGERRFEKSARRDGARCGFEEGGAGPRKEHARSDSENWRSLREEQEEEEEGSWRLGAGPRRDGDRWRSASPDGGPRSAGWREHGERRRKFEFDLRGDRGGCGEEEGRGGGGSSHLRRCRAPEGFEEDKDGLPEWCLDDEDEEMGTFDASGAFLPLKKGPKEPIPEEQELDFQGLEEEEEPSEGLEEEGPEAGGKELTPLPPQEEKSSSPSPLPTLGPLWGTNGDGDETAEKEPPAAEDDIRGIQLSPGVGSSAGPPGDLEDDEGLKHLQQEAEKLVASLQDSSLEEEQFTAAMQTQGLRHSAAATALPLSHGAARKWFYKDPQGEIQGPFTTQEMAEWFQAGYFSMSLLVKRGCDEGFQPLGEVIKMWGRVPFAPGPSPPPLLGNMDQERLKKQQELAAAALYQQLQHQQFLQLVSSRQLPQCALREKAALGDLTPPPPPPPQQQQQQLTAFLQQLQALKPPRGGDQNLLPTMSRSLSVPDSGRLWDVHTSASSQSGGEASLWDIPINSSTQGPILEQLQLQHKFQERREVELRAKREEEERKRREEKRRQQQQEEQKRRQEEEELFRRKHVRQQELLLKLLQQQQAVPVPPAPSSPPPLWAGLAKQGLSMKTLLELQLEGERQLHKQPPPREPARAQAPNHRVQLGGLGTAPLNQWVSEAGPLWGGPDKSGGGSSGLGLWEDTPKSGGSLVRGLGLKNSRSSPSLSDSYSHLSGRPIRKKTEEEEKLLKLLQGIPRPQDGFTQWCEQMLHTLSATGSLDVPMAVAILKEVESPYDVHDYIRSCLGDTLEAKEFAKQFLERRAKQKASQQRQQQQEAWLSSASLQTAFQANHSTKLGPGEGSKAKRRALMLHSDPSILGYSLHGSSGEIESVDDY
UniProt O60573: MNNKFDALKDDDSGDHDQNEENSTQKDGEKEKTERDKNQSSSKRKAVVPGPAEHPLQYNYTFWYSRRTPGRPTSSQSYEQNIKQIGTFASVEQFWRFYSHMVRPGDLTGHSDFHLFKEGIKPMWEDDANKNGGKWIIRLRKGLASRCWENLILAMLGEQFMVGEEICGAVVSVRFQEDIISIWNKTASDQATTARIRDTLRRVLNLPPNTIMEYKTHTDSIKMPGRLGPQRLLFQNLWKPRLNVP
UniProt Q9UPQ9: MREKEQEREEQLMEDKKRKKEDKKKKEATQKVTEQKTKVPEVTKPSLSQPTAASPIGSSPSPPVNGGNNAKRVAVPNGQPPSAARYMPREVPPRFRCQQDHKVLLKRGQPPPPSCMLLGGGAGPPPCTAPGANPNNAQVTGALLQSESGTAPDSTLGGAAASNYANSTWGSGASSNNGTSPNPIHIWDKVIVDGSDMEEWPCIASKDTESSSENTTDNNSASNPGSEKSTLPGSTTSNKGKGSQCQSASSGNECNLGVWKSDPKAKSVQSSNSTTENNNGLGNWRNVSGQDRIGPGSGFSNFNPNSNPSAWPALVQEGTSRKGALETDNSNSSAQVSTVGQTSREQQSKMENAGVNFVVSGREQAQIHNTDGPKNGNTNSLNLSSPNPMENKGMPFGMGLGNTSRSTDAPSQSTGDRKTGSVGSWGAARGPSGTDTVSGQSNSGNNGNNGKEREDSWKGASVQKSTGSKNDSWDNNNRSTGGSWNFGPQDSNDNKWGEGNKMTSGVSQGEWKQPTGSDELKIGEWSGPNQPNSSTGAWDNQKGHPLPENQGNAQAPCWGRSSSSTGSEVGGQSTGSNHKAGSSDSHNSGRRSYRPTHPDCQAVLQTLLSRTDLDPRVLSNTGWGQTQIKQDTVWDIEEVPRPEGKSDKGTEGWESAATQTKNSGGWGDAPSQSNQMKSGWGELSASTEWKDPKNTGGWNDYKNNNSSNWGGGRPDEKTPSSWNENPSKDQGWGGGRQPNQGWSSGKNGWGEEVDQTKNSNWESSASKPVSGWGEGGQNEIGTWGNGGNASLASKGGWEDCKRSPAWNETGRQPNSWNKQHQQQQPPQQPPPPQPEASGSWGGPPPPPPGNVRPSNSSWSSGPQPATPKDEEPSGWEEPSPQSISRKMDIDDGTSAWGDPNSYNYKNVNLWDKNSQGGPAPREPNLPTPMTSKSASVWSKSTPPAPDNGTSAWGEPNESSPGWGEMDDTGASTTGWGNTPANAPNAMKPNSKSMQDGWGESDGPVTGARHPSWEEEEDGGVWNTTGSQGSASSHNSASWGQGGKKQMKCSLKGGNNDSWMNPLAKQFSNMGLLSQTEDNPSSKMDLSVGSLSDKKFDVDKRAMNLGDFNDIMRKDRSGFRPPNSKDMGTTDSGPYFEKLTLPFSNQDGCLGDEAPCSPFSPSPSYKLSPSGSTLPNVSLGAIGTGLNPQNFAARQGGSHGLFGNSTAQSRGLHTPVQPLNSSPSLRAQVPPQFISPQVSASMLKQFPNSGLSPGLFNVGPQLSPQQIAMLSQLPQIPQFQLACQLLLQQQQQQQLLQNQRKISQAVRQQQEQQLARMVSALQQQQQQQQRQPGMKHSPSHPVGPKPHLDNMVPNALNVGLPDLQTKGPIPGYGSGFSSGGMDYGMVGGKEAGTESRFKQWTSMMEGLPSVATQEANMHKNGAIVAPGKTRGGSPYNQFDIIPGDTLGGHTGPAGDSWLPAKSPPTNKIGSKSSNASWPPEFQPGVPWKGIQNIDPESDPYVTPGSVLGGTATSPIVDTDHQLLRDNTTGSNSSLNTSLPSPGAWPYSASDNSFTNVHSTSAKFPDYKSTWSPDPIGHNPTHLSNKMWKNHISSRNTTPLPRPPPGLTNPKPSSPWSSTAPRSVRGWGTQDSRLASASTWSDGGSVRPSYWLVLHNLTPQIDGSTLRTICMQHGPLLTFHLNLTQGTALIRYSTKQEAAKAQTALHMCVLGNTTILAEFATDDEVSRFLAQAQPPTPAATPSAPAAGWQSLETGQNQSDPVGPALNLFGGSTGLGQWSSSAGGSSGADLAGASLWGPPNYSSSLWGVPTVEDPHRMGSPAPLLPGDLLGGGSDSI
UniProt Q9Y262: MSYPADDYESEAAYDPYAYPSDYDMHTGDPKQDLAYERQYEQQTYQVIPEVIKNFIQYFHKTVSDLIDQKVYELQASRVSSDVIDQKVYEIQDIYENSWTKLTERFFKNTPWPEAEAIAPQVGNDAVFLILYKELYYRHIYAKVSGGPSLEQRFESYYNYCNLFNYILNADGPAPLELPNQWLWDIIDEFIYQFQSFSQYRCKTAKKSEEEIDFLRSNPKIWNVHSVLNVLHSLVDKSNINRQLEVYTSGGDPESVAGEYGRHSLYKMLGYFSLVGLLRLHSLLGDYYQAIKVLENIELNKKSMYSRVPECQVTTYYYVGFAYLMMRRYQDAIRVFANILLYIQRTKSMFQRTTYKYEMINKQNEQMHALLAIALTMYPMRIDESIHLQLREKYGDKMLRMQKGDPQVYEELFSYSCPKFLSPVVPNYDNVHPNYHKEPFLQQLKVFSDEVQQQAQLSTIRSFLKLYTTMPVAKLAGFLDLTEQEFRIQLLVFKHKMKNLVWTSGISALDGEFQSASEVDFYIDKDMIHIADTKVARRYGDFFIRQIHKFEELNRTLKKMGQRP
UniProt P60228: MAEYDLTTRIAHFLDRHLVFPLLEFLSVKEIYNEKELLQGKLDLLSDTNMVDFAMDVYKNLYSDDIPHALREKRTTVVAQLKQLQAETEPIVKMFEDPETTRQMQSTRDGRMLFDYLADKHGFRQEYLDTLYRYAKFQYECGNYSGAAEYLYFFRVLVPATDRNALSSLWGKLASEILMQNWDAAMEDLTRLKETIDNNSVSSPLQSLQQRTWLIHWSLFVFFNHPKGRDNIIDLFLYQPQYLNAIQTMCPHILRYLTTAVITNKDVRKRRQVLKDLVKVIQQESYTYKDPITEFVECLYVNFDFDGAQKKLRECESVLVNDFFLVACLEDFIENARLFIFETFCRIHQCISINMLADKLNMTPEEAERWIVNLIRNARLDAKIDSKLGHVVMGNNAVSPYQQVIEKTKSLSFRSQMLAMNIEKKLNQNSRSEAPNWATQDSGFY
UniProt Q9HCJ0: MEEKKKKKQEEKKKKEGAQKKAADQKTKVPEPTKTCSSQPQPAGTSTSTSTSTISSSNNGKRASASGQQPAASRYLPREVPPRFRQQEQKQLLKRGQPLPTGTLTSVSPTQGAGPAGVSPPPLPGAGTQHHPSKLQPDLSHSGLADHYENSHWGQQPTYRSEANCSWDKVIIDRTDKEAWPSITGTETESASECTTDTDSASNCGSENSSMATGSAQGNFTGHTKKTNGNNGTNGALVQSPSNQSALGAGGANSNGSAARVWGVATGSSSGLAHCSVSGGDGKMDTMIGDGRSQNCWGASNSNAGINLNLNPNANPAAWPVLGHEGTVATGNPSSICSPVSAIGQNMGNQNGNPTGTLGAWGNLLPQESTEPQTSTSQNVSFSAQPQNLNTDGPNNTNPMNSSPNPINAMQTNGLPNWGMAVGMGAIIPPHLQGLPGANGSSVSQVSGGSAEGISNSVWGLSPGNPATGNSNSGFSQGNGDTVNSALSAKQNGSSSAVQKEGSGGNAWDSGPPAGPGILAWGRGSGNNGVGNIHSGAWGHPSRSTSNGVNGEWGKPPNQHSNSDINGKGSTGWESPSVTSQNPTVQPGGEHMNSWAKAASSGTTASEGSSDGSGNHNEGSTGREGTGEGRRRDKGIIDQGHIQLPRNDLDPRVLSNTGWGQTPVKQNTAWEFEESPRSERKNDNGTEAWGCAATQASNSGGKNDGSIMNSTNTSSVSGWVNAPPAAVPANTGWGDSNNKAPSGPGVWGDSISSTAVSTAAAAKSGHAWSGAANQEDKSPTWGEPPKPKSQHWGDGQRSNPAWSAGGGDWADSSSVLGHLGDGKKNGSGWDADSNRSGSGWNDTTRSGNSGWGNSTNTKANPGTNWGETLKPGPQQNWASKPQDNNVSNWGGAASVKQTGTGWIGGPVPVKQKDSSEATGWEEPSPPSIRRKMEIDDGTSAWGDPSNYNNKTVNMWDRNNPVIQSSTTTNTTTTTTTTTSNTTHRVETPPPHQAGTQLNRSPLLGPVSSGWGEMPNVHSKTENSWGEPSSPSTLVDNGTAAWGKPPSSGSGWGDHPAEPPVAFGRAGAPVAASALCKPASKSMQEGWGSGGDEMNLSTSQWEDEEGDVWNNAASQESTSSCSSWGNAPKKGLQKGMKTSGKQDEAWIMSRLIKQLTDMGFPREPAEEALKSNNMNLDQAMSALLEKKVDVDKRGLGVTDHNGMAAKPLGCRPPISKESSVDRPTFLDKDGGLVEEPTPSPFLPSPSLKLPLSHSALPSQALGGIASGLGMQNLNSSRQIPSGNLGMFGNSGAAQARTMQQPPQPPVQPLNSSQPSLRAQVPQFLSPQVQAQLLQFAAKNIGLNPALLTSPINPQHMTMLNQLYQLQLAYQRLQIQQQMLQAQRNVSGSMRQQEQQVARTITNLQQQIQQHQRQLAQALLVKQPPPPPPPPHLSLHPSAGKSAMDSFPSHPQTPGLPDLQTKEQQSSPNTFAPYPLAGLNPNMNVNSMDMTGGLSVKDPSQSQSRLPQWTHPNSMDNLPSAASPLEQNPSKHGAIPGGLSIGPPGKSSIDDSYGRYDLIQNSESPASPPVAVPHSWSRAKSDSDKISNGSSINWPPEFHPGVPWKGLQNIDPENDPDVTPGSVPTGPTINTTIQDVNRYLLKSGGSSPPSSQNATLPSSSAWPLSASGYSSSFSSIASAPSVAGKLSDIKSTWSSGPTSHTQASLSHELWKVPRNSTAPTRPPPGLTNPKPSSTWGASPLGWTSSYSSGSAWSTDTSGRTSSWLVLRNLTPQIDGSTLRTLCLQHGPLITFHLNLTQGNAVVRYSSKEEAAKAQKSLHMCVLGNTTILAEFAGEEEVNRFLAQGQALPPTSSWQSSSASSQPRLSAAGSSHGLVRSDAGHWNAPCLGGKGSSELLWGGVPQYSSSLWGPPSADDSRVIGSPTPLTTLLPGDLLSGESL

Each molecule was assayed against GIGYF1 fused in-frame with the abortive biotin ligase BirA* (R118G) (human) (UniProt O75420) (assay: proximity labelling; BioID: stable Flp-In T-REx HEK293 cells with GIGYF1 fused to BirA* at the N or C terminus, tetracycline and 50 uM biotin for 24 hours, streptavidin-Sepharose, mass spectrometry, SAINTexpress FDR <= 1%).

Row | binding | Molecule
1 | binds | eIF4E homologous protein 4EHP (eIF4E2) (from UniProt O60573 1-245)
2 | binds | TNRC6B (from UniProt Q9UPQ9 1-1833)
3 | binds | eIF3L (endogenous) (from UniProt Q9Y262 1-564)
4 | binds | eIF3E (endogenous) (from UniProt P60228 1-445)
5 | binds | TNRC6A (from UniProt Q8NDV7 1-1962)
6 | binds | TNRC6C (from UniProt Q9HCJ0 1-1936)
7 | binds | B1

— publication PMC466957
